Results taken from paper PMC3510509.
For at least one entry, the source does not settle the construct or the ends of the probe. For part of these data: A negative result means that nothing was seen under these conditions. For part of these data: A weaker result is weaker than the reference pair of the same experiment. For part of these data: At least one verdict rests on a figure or table, not on a statement of the authors.

Experiments:
[1] = tested on: DNA gyrase holoenzyme (MsGyr) (Mycobacterium smegmatis); experiment: EMSA; settings: second DNA, 240 bp complex unaffected, EMSA: 35 mM Tris-HCl pH 7.5, 1 mM spermidine, 25 mM K-glutamate, 90 ug/ml tRNA, 1.4 mM ATP, 50 ug/ml BSA, room temp (25 C), 1 nM DNA, recombinant protein, label: 32P 5'-end
[2] = biological target: GyrB (MsGyrB) (Mycobacterium smegmatis) (UniProt P0C559); experiment: EMSA; settings: 200 and 400 nM, beside R321A; EMSA: 35 mM Tris-HCl pH 7.5, 1 mM spermidine, 25 mM K-glutamate, 90 ug/ml tRNA, 1.4 mM ATP, 50 ug/ml BSA, room temp (25 C), 1 nM DNA; recombinant protein; label: 32P 5'-end
[3] = biological target: GyrB (MsGyrB) (Mycobacterium smegmatis) (UniProt P0C559); experiment: filter binding; settings: pre-incubated with 2 mM AMPPNP; filter binding: same mix on ice; recombinant protein; label: 32P 5'-end
[4] = biological target: GyrB R321A (Mycobacterium smegmatis) (UniProt P0C559); experiment: filter binding; settings: data not shown, DNA presumed 72 bp; filter binding: same mix on ice; recombinant protein; label: 32P 5'-end
[5] = tested on: Topoisomerase IV holoenzyme (Escherichia coli); experiment: pull-down; settings: 200 nM, with 240 bp DNA; recombinant protein; label: biotin on one strand, 32P on complement

Row | Sequence | binding result ([1]; enzyme pre-bound to 240 bp DNA with 2 ug/ml moxifloxacin) | binding result ([1]; enzyme pre-bound to 240 bp DNA, no moxifloxacin) | binding result [2] | binding result [3] | binding result [4] | binding result [5]
1 | ACTCTAGAGGATCCCCGGTTGGACTAAGTCCCCAGGCCCCTTAGCCACCACAACGTGGGTACCGAGCTCGAA (double strand) [DNA II (72 bp)] | no binding | no binding | binds | binds more weakly | binds more weakly | –
2 | ACTCTAGAGGATCCCCGGTTGGACTAAGTCCCCAGGCCCCTTAGCCACCACAACGTGGGTACCGAGCTCGAA (double strand) [biotinylated 72 bp DNA] | – | – | – | – | – | binds
